Source: PMC3406092
Results are given in words; binding and its absence hold for the method and conditions named. Some binding calls cover weakened binding; strength is not graded here.

Target: MecI, repressor of mecA, from S. aureus strain N315 (Staphylococcus aureus (strain N315)) (UniProt P68262)
Assay: two-hybrid; bacterial two-hybrid (restoration of CyaA from T25 and T18 fusions) in E. coli BTH101; lacZ reporter read by X-gal hydrolysis in liquid cultures; fusions at the N' or C' terminals in all combinations

B1: MecI, repressor of mecA, from S. aureus strain N315 (protein, UniProt P68262 1-123)
chain: MDNKTYEISSAEWEVMNIIWMKKYASANNIIEEIQMQKDWSPKTIRTLITRLYKKGFIDRKKDNKIFQYYSLVEESDIKYKTSKNFINKVYKGGFNSLVLNFVEKEDLSQDEIEELRNILNKK
  binding: binds
